# Library screening results

Values are the deposited “Percent Effect”, in %.
How 0% and 100% were set is not recorded. Most values in the screen are low, and negative values occur.
Compounds were drawn at random from those tested, without regard to their results.
Two or more numbers in one place are separate tests of the same structure; such repeats can differ widely.

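Viability assay of Plasmodium falciparum sporozoites; the read-out is not stated. The concentration is filed as 10 mM, unlikely as a test dose, so the dose is not known. The record gives no direction; compounds that gave an IC50 in retests scored well above the rest, so higher reads as lower viability. Strong results were mostly tested again. About 34,000 compounds were tested under these conditions; 0.84% (about 280) showed 50% or more at least once.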

Compound,percent effect
Cc1nccn1C1CCCN(C(=O)c2ccc3c(c2)COC3)C1 (stereo not drawn),5.096%
Cc1nc(CN2C(=O)CCC23CCN(c2ncccc2C)CC3)cs1,32.88% and -20.46% and -20.02%
CCN(CC)C(=O)Cn1ccc2cc(NC(=O)COC)ccc21,-4.998%
[H][C@]12CCC[C@@]1(COCC)CN(C(=O)COc1ccccc1OC)C2,-1.216%
Cc1nccc(C2CCCCN2Cc2ccccc2)n1 (stereo not drawn),7.448%
CC(NC(=O)NCCCN(C)S(C)(=O)=O)c1ccc(F)cc1 (stereo not drawn),4.441%
CC(C)c1nc2n(n1)CC(NCc1nc(-c3cccnc3)no1)CC2 (stereo not drawn),-9.249%
CN(C(=O)c1ccc(C#N)cc1)C1CCN(c2ccccn2)CC1,-1.669%
C[C@@H]1CN(Cc2ccncc2)C[C@@]1(O)C1CC1,-4.487%
Cc1cnn(CCC(=O)N2CCCC(c3cc(C)[nH]n3)C2)c1 (stereo not drawn),6.117%
NC(=O)CN1CCCCC1c1nc(N)ncc1-c1cccc(F)c1 (stereo not drawn),0.5363%
Cc1noc(C)c1S(=O)(=O)NC(=O)COc1ccc(C(C)C)cc1,4.396%
O=C(O)C(F)(F)F.[H][C@@]12C[C@H](C(=O)NCc3ccccc3)[C@@]([H])(CN(CCC(C)C)C1)O2,-8.516%
Cn1c(=O)[nH]c(=O)c2c1nc1n2CC(c2ccc(Br)cc2)O1 (stereo not drawn),-7.455%
Cc1ccc(N2CC3(CCN(c4nccs4)C3)C2)nn1,-21.42%
COc1ccc(-c2nc(CN3CCc4cncnc4C3)no2)cc1,4.636%
Cn1nc(C2CCN(C(=O)c3cccs3)CC2)c2cccnc21,-5.757%
CN(C)CCOCc1cncc2c1CCN(C1CCOCC1)C2.O=C(O)C(F)(F)F.O=C(O)C(F)(F)F.O=C(O)C(F)(F)F,16.64%
CN(C)CCN(C)C(=O)c1cnc2c(c1)nc(-c1ccccc1Cl)n2C,-8.766%
Cc1nnc2n1CCN(Cc1ccc3c(c1)OCCO3)C2,-0.4468%
O=C(NCCc1cccnc1)N1CCCC1c1ccsc1 (stereo not drawn),18.84%
CCc1nc(C2CCCN2CC(=O)Nc2c(C)nn(C)c2C)no1 (stereo not drawn),-6.73%
CCn1cc(NC(=O)C2CCN(CC(=O)NC3CCCC3)CC2)cn1,12.53%
[H][C@]12CCN(S(=O)(=O)c3cccc(C)c3)[C@@]1([H])CC[C@@H](COC)O2,-15.32%
Cc1cnn(C2CCCN(C(=O)c3ccnc(N(C)C)c3)C2)c1 (stereo not drawn),-0.4773%
COc1ccc(-n2cnnc2SCC(C)(C)O)cn1,-9.442%
Cc1cnn(CC2CCCN2C(=O)c2ccc(F)c(F)c2)c1 (stereo not drawn),4.524%
CNC(=O)C1(CCCc2ccccn2)CN(Cc2scnc2C)C1,18.02%
CS(=O)(=O)NCc1ccc2c(c1)CCC2,-7.658%
COc1ccc(NC(=O)c2cnc(C3CCN(C)CC3)nc2C)cc1,-1.219%
CN(C)c1cc2c(nn1)CCN(C(=O)Cc1ccc3c(c1)CCC3)C2,2.312%
CC(C)c1n[nH]c(C2CN(C(=O)CCn3ccccc3=O)CCO2)n1 (stereo not drawn),-9.547%
O=C(COC(=O)Cc1cccs1)NCc1cccc(NC(=O)C2CC2)c1,1.222%
O=C(NCC1(CO)CC1)c1cccc2ccccc12,-1.535%
CC(c1ccc(F)cc1F)N1CCN(Cc2nccn2C)CC1 (stereo not drawn),5.993%
Cc1cccc(NC(=O)N(CCC(F)(F)F)C[C@H](O)CO)c1,3.893%
NC(=O)Cn1cc(NC(=O)N2CCC(c3ccccc3)CC2)cn1,-6.399%
CC1CN(CC(=O)NC2CCOCC2)CCN1Cc1nccn1C (stereo not drawn),3.843%
Cc1nccc(-c2cccc(NCC(=O)N3CCNC3=O)c2)n1,8.394%
CN(C)CC1CN(Cc2ccc(F)cc2)Cc2nccn2C1.O=C(O)C(F)(F)F.O=C(O)C(F)(F)F (stereo not drawn),-5.351%
COc1cc(CNC(=O)c2c(C)noc2C)ccn1,8.772%
Cc1ncsc1C(=O)N1CCC(O)(Cn2c(C)cc3ccncc32)CC1,3.829%
CCn1ncc2c1C(COCC1CC1)CN(c1ccncn1)C2.O=C(O)C(F)(F)F.O=C(O)C(F)(F)F (stereo not drawn),-13.63%
[H][C@]12CN(Cc3scnc3C)C[C@@]1([H])OCCN(S(C)(=O)=O)C2,9.114%
CCC(C)NC(=O)c1nnn(-c2cccc3c2CCN(C)C3)c1C (stereo not drawn),-8.578%
CC(Nc1cccc(CN2CCOC2=O)c1)C(=O)Nc1cccc(F)c1 (stereo not drawn),-7.392%
Cc1ccc(-c2ncc(CN3CCN(C(=O)N(C)C)CC3)s2)o1,-6.462%
CCN1CCc2cc(C(=O)N(C)C)c(NCC3CC3)nc2CC1,-8.158%
O=C(O)C(F)(F)F.O=C(O)C(F)(F)F.[H][C@@]12CCC(=O)N(c3cnn(C)c3)[C@]1([H])CCN2CCc1ccccc1,6.914%
CCN1CCCC1CNCc1cc2cc(OC)c(OC)cc2[nH]c1=O (stereo not drawn),-5.499%
CCc1nnsc1C(=O)N1CCOC(c2nc(C(C)C)n[nH]2)C1 (stereo not drawn),-12.36%
OC1CCN(c2nc(-c3ccccc3)no2)CC1,31.4% and 73.87% and 8.647%
Cc1cc(C2CCN(S(=O)(=O)c3cn(C)cn3)CC2)ccn1,3.901%
NC(=O)CN1CCCN(C(=O)c2ccn(-c3cccc(F)c3)n2)CC1,-20.38%
COc1cc(C(=O)N2CCCS2(=O)=O)ccc1OC(C)C,8.018%
CC(C)(C)c1cn2nc(N3CCCC3Cn3cccn3)sc2n1 (stereo not drawn),-13.53%
Cc1cnn(CC2CCCCN2C(=O)CN(C)C2CC2)c1 (stereo not drawn),-10.26%
Cc1noc(C)c1CN1CCCCC1CCc1ccc(O)cc1 (stereo not drawn),-8.045%
CCn1cnnc1C1CCN(C(=O)c2ccccc2OC)CC1,6.214%
CN(C)CC1(O)CCN(C(=O)Cc2ccc3ccccc3c2)C1 (stereo not drawn),9.258%
CO[C@@H]1CCN(C(=O)c2cnoc2C)[C@H]1Cc1ccccc1,-11.2%
CCc1nnc2n1CC(CNCc1nc(-c3ccsc3)no1)CC2 (stereo not drawn),-7.658%
Cc1cc(C)cc(N2CCN(Cc3cccnc3)CC2=O)c1,-1.692%
Cc1nc(C)n(C2CCCN(C(=O)c3ccnc(N(C)C)c3)C2)n1 (stereo not drawn),-10.1%
Cc1cc(C)cc(OCCC(=O)N2CCOCC2c2ncon2)c1 (stereo not drawn),-5.096%
OCC1CCCN1c1cc(NCc2ccccn2)ncn1 (stereo not drawn),-21.68% and -23.27%
Cc1nc(COc2ccc(OCC(N)=O)cc2)oc1C,-11.1% and -8.475%
CN1CCC2(CCCN(c3nccc(C(F)(F)F)n3)C2)CC1.O=C(O)C(F)(F)F,-2.566%
Cc1nc(C2(O)CCCNCC2)sc1CCOc1ccccc1F.Cl (stereo not drawn),7.697%
COCCc1noc(CN2CCCC2c2c(C)nn(C)c2OC)n1 (stereo not drawn),-12.23% and 9.489% and -16.65%
Cc1cccc(CN2Cc3nccn3CC(CN3CCOCC3)C2)c1.O=C(O)C(F)(F)F.O=C(O)C(F)(F)F (stereo not drawn),-8.918%
Cc1cc(C(F)(F)F)nc(C2COCCN2S(C)(=O)=O)n1 (stereo not drawn),3.885%
Cc1cccc(NC2CCN(C(=O)Nc3cn[nH]c3)CC2)n1,-20.05% and -8.149% and 8.862%
O=C1OC2(CCNCC2)CN1CC(=O)N1CCCC1c1ccco1 (stereo not drawn),-8.824%
CC(C)(C)n1ncc2c1CCCC2NCc1cccc(C(N)=O)c1 (stereo not drawn),-6.583% and -14.2%
Cn1ccc(C(=O)N2CCCCC2c2cc(CCO)[nH]n2)n1 (stereo not drawn),-3.337%
O=C(NCC1CC1)C1CN(C(=O)c2cccc(Cl)c2)CC12CCOCC2 (stereo not drawn),18.66%
Br.Cc1ccccc1OC1CCN(CC(=O)Nc2cnn(C)c2C)CC1,2.494%
Cc1ccc2c(c1)c(CNC(C)Cn1nc(C)cc1C)nn2C (stereo not drawn),0%
COCc1cccc(C(=O)N2CCCCC2c2nccs2)c1 (stereo not drawn),-1.28%
COCCN1CCc2ncnc(OC(C)C)c2CC1.O=C(O)C(F)(F)F,14.54%
O=C(c1cnc(C2CC2)s1)N1CCCC1Cn1cccn1 (stereo not drawn),0.6159%
O=C(O)C(F)(F)F.O=C(O)C(F)(F)F.[H][C@@]12CCCO[C@]1([H])[C@H](OCCCn1cccn1)CN2c1nnc(C)s1,-1.029%
O=C(O)C(F)(F)F.[H][C@@]12CCN(CCc3ccccc3)C[C@@]1([H])[C@H](C(=O)NC1CCC1)CCO2,-3.157%

Repeated from the top, 7 entries:

{"compound": "Cc1nccn1C1CCCN(C(=O)c2ccc3c(c2)COC3)C1", "stereo": "stereo not drawn", "percent effect": 5.096}
{"compound": "Cc1nc(CN2C(=O)CCC23CCN(c2ncccc2C)CC3)cs1", "percent effect": "32.88 and -20.46 and -20.02"}
{"compound": "CCN(CC)C(=O)Cn1ccc2cc(NC(=O)COC)ccc21", "percent effect": -4.998}
{"compound": "[H][C@]12CCC[C@@]1(COCC)CN(C(=O)COc1ccccc1OC)C2", "percent effect": -1.216}
{"compound": "Cc1nccc(C2CCCCN2Cc2ccccc2)n1", "stereo": "stereo not drawn", "percent effect": 7.448}
{"compound": "CC(NC(=O)NCCCN(C)S(C)(=O)=O)c1ccc(F)cc1", "stereo": "stereo not drawn", "percent effect": 4.441}
{"compound": "CC(C)c1nc2n(n1)CC(NCc1nc(-c3cccnc3)no1)CC2", "stereo": "stereo not drawn", "percent effect": -9.249}

Data taken from ChEMBL document CHEMBL3988442, “University of Dundee, Small-Polar-MMV Screening Library” (2021).